Results from the supplement of paper PMC11546906.
Where a name gives a salt, the structure may show the parent alone. This is one part of the list. Repeats in this data set agree poorly, so a single value says little.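 FDA-approved drugs were each paired with colistin at one-eighth its MIC and screened against a multidrug-resistant, mcr-1-positive clinical E. coli isolate, with OD600 read after 24 h. Drug-free bacteria served as growth control, plain broth as blank. Combinations were active if OD600 dropped below 0.2.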

System: Escherichia coli 42 (mcr-1-positive clinical isolate)
Test: OD600 after 24 h growth with compound plus colistin (absorbance units (OD600)); higher = more bacterial growth (less inhibition)
Conditions: first compound 25 µM; colistin concentration 0.5 ug/mL; incubation time 24 h; 37 °C

Row | Structure (SMILES) | OD600
1 | CCN[C@H]1CN(CCCOC)S(=O)(=O)c2sc(S(N)(=O)=O)cc21 [Brinzolamide] + CCC(C)CCCC(=O)N[C@@H](CCN)C(=O)N[C@H](C(=O)N[C@@H](CCN)C(=O)N[C@H]1CCNC(=O)[C@H]([C@@H](C)O)NC(=O)[C@H](CCN)NC(=O)[C@H](CCN)NC(=O)[C@H](CC(C)C)NC(=O)[C@@H](CC(C)C)NC(=O)[C@H](CCN)NC1=O)[C@@H](C)O [colistin] | inactive: 1
2 | CC1(C)O[C@@H]2C[C@H]3[C@@H]4CCC5=CC(=O)C=C[C@]5(C)[C@H]4[C@@H](O)C[C@]3(C)[C@]2(C(=O)CO)O1 [Desonide] + CCC(C)CCCC(=O)N[C@@H](CCN)C(=O)N[C@H](C(=O)N[C@@H](CCN)C(=O)N[C@H]1CCNC(=O)[C@H]([C@@H](C)O)NC(=O)[C@H](CCN)NC(=O)[C@H](CCN)NC(=O)[C@H](CC(C)C)NC(=O)[C@@H](CC(C)C)NC(=O)[C@H](CCN)NC1=O)[C@@H](C)O [colistin] | inactive: 0.825
3 | COCCCN1CCC(NC(=O)c2cc(Cl)c(N)c3c2OCC3)CC1 [Prucalopride] + CCC(C)CCCC(=O)N[C@@H](CCN)C(=O)N[C@H](C(=O)N[C@@H](CCN)C(=O)N[C@H]1CCNC(=O)[C@H]([C@@H](C)O)NC(=O)[C@H](CCN)NC(=O)[C@H](CCN)NC(=O)[C@H](CC(C)C)NC(=O)[C@@H](CC(C)C)NC(=O)[C@H](CCN)NC1=O)[C@@H](C)O [colistin] | inactive: 1.04
4 | CCCN1CCCC[C@H]1C(=O)Nc1c(C)cccc1C [Ropivacaine hydrochloride monohydrate] + CCC(C)CCCC(=O)N[C@@H](CCN)C(=O)N[C@H](C(=O)N[C@@H](CCN)C(=O)N[C@H]1CCNC(=O)[C@H]([C@@H](C)O)NC(=O)[C@H](CCN)NC(=O)[C@H](CCN)NC(=O)[C@H](CC(C)C)NC(=O)[C@@H](CC(C)C)NC(=O)[C@H](CCN)NC1=O)[C@@H](C)O [colistin] | inactive: 1.03
5 | CN(C)[C@@H]1C(=O)C(C(N)=O)=C(O)[C@@]2(O)C(=O)C3=C(O)c4c(O)ccc(Cl)c4[C@@H](O)[C@H]3C[C@@H]12 [Demeclocycline hydrochloride] + CCC(C)CCCC(=O)N[C@@H](CCN)C(=O)N[C@H](C(=O)N[C@@H](CCN)C(=O)N[C@H]1CCNC(=O)[C@H]([C@@H](C)O)NC(=O)[C@H](CCN)NC(=O)[C@H](CCN)NC(=O)[C@H](CC(C)C)NC(=O)[C@@H](CC(C)C)NC(=O)[C@H](CCN)NC1=O)[C@@H](C)O [colistin] | inactive: 0.99
6 | CS(=O)(=O)CCNCc1ccc(-c2ccc3ncnc(Nc4ccc(OCc5cccc(F)c5)c(Cl)c4)c3c2)o1 [Lapatinib ditosylate] + CCC(C)CCCC(=O)N[C@@H](CCN)C(=O)N[C@H](C(=O)N[C@@H](CCN)C(=O)N[C@H]1CCNC(=O)[C@H]([C@@H](C)O)NC(=O)[C@H](CCN)NC(=O)[C@H](CCN)NC(=O)[C@H](CC(C)C)NC(=O)[C@@H](CC(C)C)NC(=O)[C@H](CCN)NC1=O)[C@@H](C)O [colistin] | inactive: 1.09
7 | CC(N)C12CC3CC(CC(C3)C1)C2 (centres undefined) [Rimantadine hydrochloride] + CCC(C)CCCC(=O)N[C@@H](CCN)C(=O)N[C@H](C(=O)N[C@@H](CCN)C(=O)N[C@H]1CCNC(=O)[C@H]([C@@H](C)O)NC(=O)[C@H](CCN)NC(=O)[C@H](CCN)NC(=O)[C@H](CC(C)C)NC(=O)[C@@H](CC(C)C)NC(=O)[C@H](CCN)NC1=O)[C@@H](C)O [colistin] | inactive: 1.1
8 | CCCNCC(O)COc1ccccc1C(=O)CCc1ccccc1 (centres undefined) [Propafenone] + CCC(C)CCCC(=O)N[C@@H](CCN)C(=O)N[C@H](C(=O)N[C@@H](CCN)C(=O)N[C@H]1CCNC(=O)[C@H]([C@@H](C)O)NC(=O)[C@H](CCN)NC(=O)[C@H](CCN)NC(=O)[C@H](CC(C)C)NC(=O)[C@@H](CC(C)C)NC(=O)[C@H](CCN)NC1=O)[C@@H](C)O [colistin] | inactive: 0.932
9 | CNCCC(Oc1ccc(C(F)(F)F)cc1)c1ccccc1 (centres undefined) [Fluoxetine hydrochloride] + CCC(C)CCCC(=O)N[C@@H](CCN)C(=O)N[C@H](C(=O)N[C@@H](CCN)C(=O)N[C@H]1CCNC(=O)[C@H]([C@@H](C)O)NC(=O)[C@H](CCN)NC(=O)[C@H](CCN)NC(=O)[C@H](CC(C)C)NC(=O)[C@@H](CC(C)C)NC(=O)[C@H](CCN)NC1=O)[C@@H](C)O [colistin] | inactive: 1.21
10 | COc1c(C)c2c(c(O)c1C/C=C(\C)CCC(=O)OCCN1CCOCC1)C(=O)OC2 + CCC(C)CCCC(=O)N[C@@H](CCN)C(=O)N[C@H](C(=O)N[C@@H](CCN)C(=O)N[C@H]1CCNC(=O)[C@H]([C@@H](C)O)NC(=O)[C@H](CCN)NC(=O)[C@H](CCN)NC(=O)[C@H](CC(C)C)NC(=O)[C@@H](CC(C)C)NC(=O)[C@H](CCN)NC1=O)[C@@H](C)O [colistin] | inactive: 1.01
11 | CO/N=C(\C(=O)N[C@@H]1C(=O)N2C(C(=O)O)=C(COC(C)=O)CS[C@H]12)c1csc(N)n1 [Cefotaxime sodium] + CCC(C)CCCC(=O)N[C@@H](CCN)C(=O)N[C@H](C(=O)N[C@@H](CCN)C(=O)N[C@H]1CCNC(=O)[C@H]([C@@H](C)O)NC(=O)[C@H](CCN)NC(=O)[C@H](CCN)NC(=O)[C@H](CC(C)C)NC(=O)[C@@H](CC(C)C)NC(=O)[C@H](CCN)NC1=O)[C@@H](C)O [colistin] | active: 0.046
12 | C=CC(=O)Nc1cc(Nc2nccc(-c3cn(C)c4ccccc34)n2)c(OC)cc1N(C)CCN(C)C [Osimertinib] + CCC(C)CCCC(=O)N[C@@H](CCN)C(=O)N[C@H](C(=O)N[C@@H](CCN)C(=O)N[C@H]1CCNC(=O)[C@H]([C@@H](C)O)NC(=O)[C@H](CCN)NC(=O)[C@H](CCN)NC(=O)[C@H](CC(C)C)NC(=O)[C@@H](CC(C)C)NC(=O)[C@H](CCN)NC1=O)[C@@H](C)O [colistin] | inactive: 0.773
13 | OCc1ccccc1 [Benzyl alcohol] + CCC(C)CCCC(=O)N[C@@H](CCN)C(=O)N[C@H](C(=O)N[C@@H](CCN)C(=O)N[C@H]1CCNC(=O)[C@H]([C@@H](C)O)NC(=O)[C@H](CCN)NC(=O)[C@H](CCN)NC(=O)[C@H](CC(C)C)NC(=O)[C@@H](CC(C)C)NC(=O)[C@H](CCN)NC1=O)[C@@H](C)O [colistin] | inactive: 1
14 | CCC(C)n1ncn(-c2ccc(N3CCN(c4ccc(OCC5COC(Cn6cncn6)(c6ccc(Cl)cc6Cl)O5)cc4)CC3)cc2)c1=O (centres undefined) [Itraconazole] + CCC(C)CCCC(=O)N[C@@H](CCN)C(=O)N[C@H](C(=O)N[C@@H](CCN)C(=O)N[C@H]1CCNC(=O)[C@H]([C@@H](C)O)NC(=O)[C@H](CCN)NC(=O)[C@H](CCN)NC(=O)[C@H](CC(C)C)NC(=O)[C@@H](CC(C)C)NC(=O)[C@H](CCN)NC1=O)[C@@H](C)O [colistin] | inactive: 1.08
15 | CCCCC(=O)N(Cc1ccc(-c2ccccc2-c2nn[nH]n2)cc1)[C@H](C(=O)O)C(C)C.CCOC(=O)[C@H](C)C[C@@H](Cc1ccc(-c2ccccc2)cc1)NC(=O)CCC(=O)O [Sacubitril/Valsartan] + CCC(C)CCCC(=O)N[C@@H](CCN)C(=O)N[C@H](C(=O)N[C@@H](CCN)C(=O)N[C@H]1CCNC(=O)[C@H]([C@@H](C)O)NC(=O)[C@H](CCN)NC(=O)[C@H](CCN)NC(=O)[C@H](CC(C)C)NC(=O)[C@@H](CC(C)C)NC(=O)[C@H](CCN)NC1=O)[C@@H](C)O [colistin] | inactive: 1.12
16 | COc1ccc2cc([C@H](C)C(=O)O)ccc2c1 [Naproxen sodium] + CCC(C)CCCC(=O)N[C@@H](CCN)C(=O)N[C@H](C(=O)N[C@@H](CCN)C(=O)N[C@H]1CCNC(=O)[C@H]([C@@H](C)O)NC(=O)[C@H](CCN)NC(=O)[C@H](CCN)NC(=O)[C@H](CC(C)C)NC(=O)[C@@H](CC(C)C)NC(=O)[C@H](CCN)NC1=O)[C@@H](C)O [colistin] | inactive: 1.05
17 | CCCCC[C@H](O)/C=C/[C@H]1[C@H](O)CC(=O)[C@@H]1CCCCCCC(=O)O [Prostaglandin E1] + CCC(C)CCCC(=O)N[C@@H](CCN)C(=O)N[C@H](C(=O)N[C@@H](CCN)C(=O)N[C@H]1CCNC(=O)[C@H]([C@@H](C)O)NC(=O)[C@H](CCN)NC(=O)[C@H](CCN)NC(=O)[C@H](CC(C)C)NC(=O)[C@@H](CC(C)C)NC(=O)[C@H](CCN)NC1=O)[C@@H](C)O [colistin] | inactive: 0.853
18 | NC(=O)C(c1ccccc1)(c1ccccc1)[C@@H]1CCN(CCc2ccc3c(c2)CCO3)C1 [Darifenacin hydrobromide] + CCC(C)CCCC(=O)N[C@@H](CCN)C(=O)N[C@H](C(=O)N[C@@H](CCN)C(=O)N[C@H]1CCNC(=O)[C@H]([C@@H](C)O)NC(=O)[C@H](CCN)NC(=O)[C@H](CCN)NC(=O)[C@H](CC(C)C)NC(=O)[C@@H](CC(C)C)NC(=O)[C@H](CCN)NC1=O)[C@@H](C)O [colistin] | inactive: 0.994
19 | CCCN1CCCC[C@H]1C(=O)Nc1c(C)cccc1C [Ropivacaine] + CCC(C)CCCC(=O)N[C@@H](CCN)C(=O)N[C@H](C(=O)N[C@@H](CCN)C(=O)N[C@H]1CCNC(=O)[C@H]([C@@H](C)O)NC(=O)[C@H](CCN)NC(=O)[C@H](CCN)NC(=O)[C@H](CC(C)C)NC(=O)[C@@H](CC(C)C)NC(=O)[C@H](CCN)NC1=O)[C@@H](C)O [colistin] | inactive: 1.24

2 consecutive records from above:
Row | Structure (SMILES) | OD600
2 | CC1(C)O[C@@H]2C[C@H]3[C@@H]4CCC5=CC(=O)C=C[C@]5(C)[C@H]4[C@@H](O)C[C@]3(C)[C@]2(C(=O)CO)O1 [Desonide] + CCC(C)CCCC(=O)N[C@@H](CCN)C(=O)N[C@H](C(=O)N[C@@H](CCN)C(=O)N[C@H]1CCNC(=O)[C@H]([C@@H](C)O)NC(=O)[C@H](CCN)NC(=O)[C@H](CCN)NC(=O)[C@H](CC(C)C)NC(=O)[C@@H](CC(C)C)NC(=O)[C@H](CCN)NC1=O)[C@@H](C)O [colistin] | inactive: 0.825
3 | COCCCN1CCC(NC(=O)c2cc(Cl)c(N)c3c2OCC3)CC1 [Prucalopride] + CCC(C)CCCC(=O)N[C@@H](CCN)C(=O)N[C@H](C(=O)N[C@@H](CCN)C(=O)N[C@H]1CCNC(=O)[C@H]([C@@H](C)O)NC(=O)[C@H](CCN)NC(=O)[C@H](CCN)NC(=O)[C@H](CC(C)C)NC(=O)[C@@H](CC(C)C)NC(=O)[C@H](CCN)NC1=O)[C@@H](C)O [colistin] | inactive: 1.04
